This note sets out measurements from paper PMC8018780 (PLoS ONE, 2021).

HELM strings list residues between dots; [ac] is acetyl, [am] amide, other brackets name non-standard units.

Data set [1] in a line: general procedure: Fmoc solid-phase peptide synthesis; Fmoc-Rink Amide-Tentagel resin (TGRA); Fmoc-Sieber-polystyrene resin; HATU/collidine. The note with it: whole synthesis; for final HPLC purity: analytical HPLC (Shimadzu Nexera-x2 UHPLC, C8 or C18), scale of the general procedure 0.100-0.500 mmol.
A short description of data set [2]: general procedure: Fmoc solid-phase peptide synthesis; Sieber resin; HATU/collidine. The note with it: whole synthesis, scale 0.100 mmol.
A short description of data set [3]: general procedure: Fmoc solid-phase peptide synthesis; Tentagel Rink Amide (TGRA); HATU/collidine. The note with it: whole synthesis.

On to “PEPTIDE1{G.Y.R.P.V.H.N.I.R.G.H.W.A.P.G.K.[am]}$$$$V2.0”, for which the “final HPLC purity” value in data set [1] turned out to be 95.8%. In data set [2], this substance yielded an isolated mass of 38.2 mg and an isolated yield of 20%.
Take “PEPTIDE1{G.Y.R.P.V.H.N.I.R.G.H.W.A.P.G.[KT].[am]}$$$$V2.0”: the “final HPLC purity” value in data set [1] is 100%. In data set [3] (scale 0.029 mmol), the isolated mass is 28.1 mg and the isolated yield is recorded as 43%.
As to “PEPTIDE1{F.R.C.L.V.E.N.R.G.D.V.P.F.V.T.R.I.R.[am]}$$$$V2.0”, the “final HPLC purity” value in data set [1] is 92.3%. In data set [3] (scale 0.05 mmol), this substance had an isolated mass of 37.3 mg and an isolated yield of 36%.
As to “PEPTIDE1{[tam].F.R.C.L.V.E.N.R.G.D.V.P.F.V.T.R.I.R.[am]}$$$$V2.0”, the “final HPLC purity” value in data set [1] is listed as 99.7%. In addition, in data set [1] (scale 0.01 mmol), the isolated mass is given as 4.7 mg and the isolated yield was determined as 18%.
